Measurements reported in publication PMC4577729, “7-(Pyrazol-4-yl)-3H-imidazo[4,5-b]pyridine-based derivatives for kinase inhibition: Co-crystallisation studies with Aurora-A reveal distinct differences in the orientation of the pyrazole N1-substituent” (Bioorganic & Medicinal Chemistry Letters, 2015).
A number of entries come with more than one value. This list holds those alone. There may be further records. The values listed for one entry seem to repeat one measurement on other runs, samples or individuals.

Experiment: In vivo mouse pharmacokinetic profiling

SMILES | clearance | volume of distribution
Cc1nn(C)cc1-c1nc2c(-c3cnn(Cc4ccccc4)c3)c(Cl)cnc2[nH]1 [Compound 7a] | 0.012 L/h and 10.0 mL/min/kg | 0.01 L and 0.5 L/kg
Cc1nn(C)cc1-c1nc2c(-c3cnn(Cc4ccc(Cl)cc4)c3)c(Cl)cnc2[nH]1 | 0.016 L/h and 13.3 mL/min/kg | 0.02 L and 1.0 L/kg
